# Measured values reported in PMC10566475 (Chemical Science, 2023).
# Experiment: general procedure: Fmoc solid-phase peptide synthesis; Rink amide resin (0.308 mmol/g loading); DIC; HATU/DIPEA
# Details: conjugation step, thioether ring
row,Substance,final HPLC purity [%]
1,C5DPETGEC5L clicked with G,93
2,C5DPETGEC5L clicked with H,97
3,C5LQLDPETGEC5L clicked with G,90
4,C5LQLDPETGEC5L clicked with H,96

# Same assay, conditions: cyclisation step
row,Substance,final HPLC purity [%]
1,AzaLQLDPETGEAzaL,98
2,C5DPETGEC5L,54
3,"PEPTIDE1{[ac].C.L.Q.L.[D(OMe)].P.[E(OMe)].T.G.[E(OMe)].C.L.[am]}|CHEM1{[DVP-F]}$PEPTIDE1,CHEM1,2:R3-1:R1|PEPTIDE1,CHEM1,12:R3-1:R2$$$V2.0",99
4,"PEPTIDE1{[ac].C.Q.L.D.P.E.T.G.E.C.L.[am]}|CHEM1{[StapleA]}$PEPTIDE1,CHEM1,2:R3-1:R1|PEPTIDE1,CHEM1,11:R3-1:R2$$$V2.0",88
5,"PEPTIDE1{[ac].C.Q.L.D.P.E.T.G.E.C.L.[am]}|CHEM1{[StapleB]}$PEPTIDE1,CHEM1,2:R3-1:R1|PEPTIDE1,CHEM1,11:R3-1:R2$$$V2.0",>99
6,"PEPTIDE1{[ac].L.Q.C.D.P.E.T.G.E.C.L.[am]}|CHEM1{[StapleA]}$PEPTIDE1,CHEM1,4:R3-1:R1|PEPTIDE1,CHEM1,11:R3-1:R2$$$V2.0",98
7,"PEPTIDE1{[ac].L.Q.C.D.P.E.T.G.E.C.L.[am]}|CHEM1{[StapleB]}$PEPTIDE1,CHEM1,4:R3-1:R1|PEPTIDE1,CHEM1,11:R3-1:R2$$$V2.0",96
8,"PEPTIDE1{[ac].L.Q.C.D.P.E.T.G.E.C.L.[am]}|CHEM1{[StapleC]}$PEPTIDE1,CHEM1,4:R3-1:R1|PEPTIDE1,CHEM1,11:R3-1:R2$$$V2.0",85

# Same assay, conditions: cyclisation step, thioether ring, sequence written open
row,Substance,final HPLC purity [%]
1,CCQLDPETGECCL,99
2,CDLQLDPETGECDL,97
3,CDQLDPETGECDL,99
4,CFLQLD(OMe)PE(OMe)TGECFL,88
5,CFLQLD(OMe)PETE(OMe)CFL,98
6,CFLQLDPE(OMe)TGE(OMe)CFL,96
7,CFLQLDPETGECFL,93
8,LQCDDPETGECDL,98

# Same assay, conditions: whole synthesis
row,Substance,final HPLC purity [%]
1,CLQLD(OMe)PE(OMe)TGE(OMe)CL,87
2,CLQLD(OMe)PE(OMe)TGECL,95
3,CLQLD(OMe)PETGE(OMe)CL,96
4,CLQLDPE(OMe)TGE(OMe)CL,95
5,LCEGTEPDCQL,90
6,LCEGTEPDLQC,>99
7,LQLDPETGEFL,96
8,N3-Apa-GWWG-(D)R(D)R(D)R -NH2,88
9,PEPTIDE1{[ac].C.D.P.E.T.G.E.C.L.[am]}$$$$V2.0,98
10,PEPTIDE1{[ac].C.L.Q.L.D.P.E.T.G.E.C.L.[am]}$$$$V2.0,78
11,PEPTIDE1{[ac].C.Q.L.D.P.E.T.G.E.C.L.[am]}$$$$V2.0,85
12,PEPTIDE1{[ac].L.Q.C.D.P.E.T.G.E.C.L.[am]}$$$$V2.0,94

# Where a sequence shows no end group, the ends are not given. Strings that start with PEPTIDE1 are HELM notation: dots part the residues, brackets hold end groups and non-standard residues.
